{"source": "PubChem BioAssay AID1159584 (Peter MacCallum Cancer Centre, 2016)", "screen": "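Genes that CDH1-null MCF10A cells selectively depend on to survive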 (primary screen)", "system": "human MCF10A breast epithelial cells, parental and CDH1-null", "knock-down reagent": "siRNA against human genes", "measured": "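ATP luminescence (CellTiter-Glo) viability per line relative to mean mock wells over all plates, and the ratio of CDH1-null to parental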", "reading the numbers": "CDH1-null / parental viability ratio: higher = CDH1-null cells survive relatively better than parental", "note": "Here is one part, drawn at random, of about 18,000 reagents tested. Further read-outs or replicates are left out here. The record does not give: the amount of reagent, the time to read-out."}
{"target": "SCML2 (GeneID 10389)", "CDH1-null / parental viability ratio": 0.69}
{"target": "SHANK1 (GeneID 50944)", "CDH1-null / parental viability ratio": 1.29}
{"target": "CAMKK2 (GeneID 10645)", "CDH1-null / parental viability ratio": 1.05}
{"target": "SOFU1 (GeneID 135927)", "CDH1-null / parental viability ratio": 0.92}
{"target": "AGXT2 (GeneID 64902)", "CDH1-null / parental viability ratio": 0.83}
{"target": "CT47A7 (GeneID 653282)", "CDH1-null / parental viability ratio": 0.94}
{"target": "SYT16 (GeneID 83851)", "CDH1-null / parental viability ratio": 1.43}
{"target": "ERF (GeneID 2077)", "CDH1-null / parental viability ratio": 0.89}
{"target": "KCNA1 (GeneID 3736)", "CDH1-null / parental viability ratio": 1.07}
{"target": "CBX5 (GeneID 23468)", "CDH1-null / parental viability ratio": 1}
{"target": "RAD23B (GeneID 5887)", "CDH1-null / parental viability ratio": 0.78}
{"target": "S100A5 (GeneID 6276)", "CDH1-null / parental viability ratio": 1.08}
{"target": "KDM5B (GeneID 10765)", "CDH1-null / parental viability ratio": 1}
{"target": "CASP7 (GeneID 840)", "CDH1-null / parental viability ratio": 1.15}
{"target": "C1orf216 (GeneID 127703)", "CDH1-null / parental viability ratio": 0.79}
{"target": "STAC2 (GeneID 342667)", "CDH1-null / parental viability ratio": 1.09}
{"target": "LYSMD3 (GeneID 116068)", "CDH1-null / parental viability ratio": 0.98}
{"target": "IKBKE (GeneID 9641)", "CDH1-null / parental viability ratio": 0.96}
{"target": "DUSP14 (GeneID 11072)", "CDH1-null / parental viability ratio": 1.39}
{"target": "NEIL1 (GeneID 79661)", "CDH1-null / parental viability ratio": 0.88}
{"target": "MACC1 (GeneID 346389)", "CDH1-null / parental viability ratio": 0.95}
{"target": "TOP3B (GeneID 8940)", "CDH1-null / parental viability ratio": 1.05}
{"target": "OR10H3 (GeneID 26532)", "CDH1-null / parental viability ratio": 0.86}
{"target": "ZRANB3 (GeneID 84083)", "CDH1-null / parental viability ratio": 1.01}
{"target": "SLC23A3 (GeneID 151295)", "CDH1-null / parental viability ratio": 0.86}
{"target": "BGLAP (GeneID 632)", "CDH1-null / parental viability ratio": 1.09}
{"target": "CHCHD7 (GeneID 79145)", "CDH1-null / parental viability ratio": 0.82}
{"target": "HAND2 (GeneID 9464)", "CDH1-null / parental viability ratio": 0.84}
{"target": "TCEA3 (GeneID 6920)", "CDH1-null / parental viability ratio": 0.9}
{"target": "TMEM217 (GeneID 221468)", "CDH1-null / parental viability ratio": 1.02}
{"target": "KRTAP5-10 (GeneID 387273)", "CDH1-null / parental viability ratio": 1.19}
{"target": "PPIL1 (GeneID 51645)", "CDH1-null / parental viability ratio": 1.3}
{"target": "OR52A1 (GeneID 23538)", "CDH1-null / parental viability ratio": 1.19}
{"target": "SBNO1 (GeneID 55206)", "CDH1-null / parental viability ratio": 1.19}
{"target": "FRG2 (GeneID 448831)", "CDH1-null / parental viability ratio": 0.88}

Not a retest: 3 of the entries above.
{"target": "STAC2 (GeneID 342667)", "CDH1-null / parental viability ratio": 1.09}
{"target": "LYSMD3 (GeneID 116068)", "CDH1-null / parental viability ratio": 0.98}
{"target": "IKBKE (GeneID 9641)", "CDH1-null / parental viability ratio": 0.96}
